Results from paper PMC6083498, “F-CphI represents a new homing endonuclease family using the Endo VII catalytic motif”.
Construct, isoform or probe ends are uncertain for at least one entry. Negatives hold for the conditions tested. At least one verdict was read from the data and is not stated in words by the source. Tags and fusion partners may be left off the protein sequences shown.

Biological target: T1, F-CphI (cyanophage S-PM2) (UniProt Q7Y4H4)
T1 sequence (looked up, limits assumed): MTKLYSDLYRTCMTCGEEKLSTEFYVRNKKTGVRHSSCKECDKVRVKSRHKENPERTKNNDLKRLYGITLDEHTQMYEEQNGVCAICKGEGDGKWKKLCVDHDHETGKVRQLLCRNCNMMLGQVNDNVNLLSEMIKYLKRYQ
Assay: competition with a labelled probe
Conditions: 200 nM protein, 2 nM labeled N1, competitor 0-20 nM; EMSA: 10 mM Tris-HCl pH 8.0, 2% glycerol, 2 ug/ml poly-dIdC, 2 ug/ml BSA, 0.2 mM DTT, on ice 15 min, 2 nM labeled DNA; 8% native PAGE in 1X TBE; recombinant protein; label: unlabeled

TAGACGGATGAATATTGAGGACAGAAGTTGGATTTGGTAGT (double strand) [endoV41A duplex]
binding result: no binding
